Here are results for 3 molecules from PMC4114565.

No constants are given. Whether binding was seen depends on the method and setting. In cells and extracts the contact can be indirect. Some binding calls cover weakened binding; strength is not graded here. For part of these data: Tags and fused reporters may be left off the sequences shown.

The target in experiment [1] is T1, UBF1 (mouse (endogenous in C2C12)) (UniProt P25976).
T1 sequence: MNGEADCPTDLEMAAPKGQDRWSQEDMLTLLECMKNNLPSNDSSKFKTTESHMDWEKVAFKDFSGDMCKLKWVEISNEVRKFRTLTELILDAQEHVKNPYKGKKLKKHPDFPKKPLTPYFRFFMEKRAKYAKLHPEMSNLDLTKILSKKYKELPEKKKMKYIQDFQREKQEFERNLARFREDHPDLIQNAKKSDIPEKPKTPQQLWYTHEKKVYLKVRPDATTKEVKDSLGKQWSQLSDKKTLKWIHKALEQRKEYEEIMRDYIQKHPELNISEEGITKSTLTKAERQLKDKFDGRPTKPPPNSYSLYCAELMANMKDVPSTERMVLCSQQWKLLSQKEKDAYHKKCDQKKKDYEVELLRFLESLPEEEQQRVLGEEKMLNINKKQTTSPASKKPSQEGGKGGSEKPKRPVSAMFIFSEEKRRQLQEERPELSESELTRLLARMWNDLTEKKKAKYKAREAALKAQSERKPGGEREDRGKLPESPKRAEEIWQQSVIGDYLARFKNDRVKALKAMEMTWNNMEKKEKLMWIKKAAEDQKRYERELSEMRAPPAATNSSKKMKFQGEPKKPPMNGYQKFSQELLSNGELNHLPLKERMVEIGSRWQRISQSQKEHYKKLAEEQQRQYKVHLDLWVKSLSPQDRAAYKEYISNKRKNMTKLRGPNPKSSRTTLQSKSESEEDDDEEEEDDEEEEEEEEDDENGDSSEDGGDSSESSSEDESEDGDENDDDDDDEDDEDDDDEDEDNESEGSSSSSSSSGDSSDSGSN
Kind of experiment: co-IP; antibodies against endogenous UBF1, C2C12 lysates; endogenous proteins detected by blot.

Experiment [2] addresses T1, UBF1 (mouse (endogenous in C2C12)). Put plainly: co-IP; antibodies against endogenous UBF1, C2C12 lysates; NOA1-His6 co-immunoprecipitated; only the binder purified.

B1: Tfam (protein, UniProt P40630 43-243)
chain: SSMGSYPKKPMSSYLRFSTEQLPKFKAKHPDAKLSELVRKIAALWRELPEAEKKVYEADFKAEWKAYKEAVSKYKEQLTPSQLMGMEKEARQRRLKKKALVKRRELILLGKPKRPRSAYNIYVSESFQEAKDDSAQGKLKLVNEAWKNLSPEEKQAYIQLAKDDRIRYDNEMKSWEEQMAEVGRSDLIRRSVKRSGDISEH
B1: the binding result in experiment [1] was “no binding”.

B2: fibrillarin (protein, UniProt P35550 1-327)
chain: MKPGFSPRGGGFGGRGGFGDRGGRGGGRGGRGGFGGGRGGFGGGGRGRGGGGGGFRGRGGGGGRGGGFQSGGNRGRGGGRGGKRGNQSGKNVMVEPHRHEGVFICRGKEDALVTKNLVPGESVYGEKRVSISEGDDKIEYRAWNPFRSKLAAAILGGVDQIHIKPGAKVLYLGAASGTTVSHVSDIVGPDGLVYAVEFSHRSGRDLINLAKKRTNIIPVIEDARHPHKYRMLIAMVDVIFADVAQPDQTRIVALNAHTFLRNGGHFVISIKANCIDSTASAEAVFASEVKKMQQENMKPQEQLTLEPYERDHAVVVGVYRPPPKVKN
On to B2, for which the binding entry in experiment [1] is listed as “binds”.

B3: recombinant mouse NOA1-His6 protein lacking the mitochondrial targeting sequence (aa 1–17) (domain or fragment, UniProt Q9JJG9 18-693)
chain: PAPAAACYGPARWLLEGKCEVPIRQRASSLGRRVPPSSTATEDYAEGPDTEERFLFPEYVPERTPEEQVRELQELRELQQLQQEKERERLQQREERLQQKLRAGFRTLPVPEFPDASVPPSGIYCSGCGAELHCQHPGLPGYLPEEKFRDAAQAEGGPARTVCQRCWLLVHHGRALRLQVSRDQYLELVSAALRRPGPALVLYMVNLLDLPDALLPDLPKLVGPKQLIVLGNKVDLLPQDAPGYLKRLRKRLWDDCIRAGLVVAPGHQGPQYPAGDEPLEEIKNQNPSSRSRTVVKDVRLISAKTGYGVEEMISALQRSWRYRGDVYLVGTTNAGKSTLFNTLLESDYCTAKGSEAIDRATISPWPGTTLNLLKFPICNPTPYRMFKRQRRLQEDATKAEEDLSEEEQSQLNQLKKHGYIVGRVGRTFSYSREQDEVPFEFDADSLAFDMGSEPVVSVCKSTKQIELTPEDVKDAHWFYDTPGITKESCILNLLTEKEINTVLPTHSIIPRTFVLKPGMVLFLGGIARIDFLQGNQSAWFTVVASNFLPVHITSLDKADALYEKHAGHELLLVPMGGKERMAQFPPLVAEDITLKGGGKFEAVADIKFSSAGWVAVTPYSEGTLHLRGHTPEGTALTVHPPVLPYIVNVKGQRMKKSVAYKTKKPPSLVHNLKKHR
Consider B3, for which the binding result in experiment [2] was “binds”.
